For test [1], the target named is S. pneumoniae RecA, full-length (FL), Gal4 fusion for yeast two-hybrid (S. pneumoniae) (UniProt P0A451). As to the kind of experiment: two-hybrid; Gal4-AD (pGAD-C1) and Gal4-BD (pGBDU-C1) fusions co-transformed in yeast pJ69-4A; growth on synthetic complete medium lacking leucine, uracil and histidine; 1/5th dilution series, 5 days at 28°C.
For test [2], the target named is T1, S. pneumoniae wild-type DprA, Gal4-BD fusion (S. pneumoniae) (UniProt Q8DPI7).
T1 sequence: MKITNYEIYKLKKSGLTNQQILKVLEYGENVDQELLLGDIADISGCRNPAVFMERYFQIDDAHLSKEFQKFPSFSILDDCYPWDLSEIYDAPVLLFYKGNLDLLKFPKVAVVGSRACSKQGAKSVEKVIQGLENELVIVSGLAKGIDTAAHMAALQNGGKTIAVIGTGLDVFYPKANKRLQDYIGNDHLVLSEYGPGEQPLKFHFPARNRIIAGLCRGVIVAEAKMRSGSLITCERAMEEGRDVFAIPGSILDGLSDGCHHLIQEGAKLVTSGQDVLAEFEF
Described as above.

Consider one substance from PMC4066776.

No constants are given. Whether binding was seen depends on the method and setting. Some results given as binding are weak or reduced against the parent protein; the word gives no strength. For some assays here: Sequences can lack the tags named with a protein.

As for “S. pneumoniae RecA, full-length (FL), Gal4 fusion for yeast two-hybrid (from UniProt P0A451 1-388)”, the binding entry in test [1] is on record as “binds”; in test [2], “no binding”.
